{"source": "patent US20240254072A1", "about": "“DERIVATIVES OF CANNABIDIOL-C4 FOR THE TREATMENT OF EPILEPSY” (priority 2021, published 2024)", "system": "tonic hind limb extensor convulsions induced by electroshock (generalised seizure)", "test": "mini-MEST (maximal electroshock seizure threshold) test in the mouse", "details": "i.p., 30 min post dose, diazepam 2.5 mg/kg, Compound I 100 mg/kg, Compound II 150 mg/kg", "experimental": "The maximal electroshock seizure threshold (MEST) test is widely utilized preclinically to evaluate pro- or anti-convulsant properties of test compounds (Loscher et al., 1991).\nIn the MEST test the ability of a drug to alter the seizure threshold current required to induce hind limb tonic extensor convulsions is measured according to an “up and down” method of shock titration (Kimball et al., 1957). An increase in seizure threshold is indicative of anti-convulsant effect.\nThe ability of a test compound to alter the stimulus intensity, expressed as current (mA), required to induce the presence of tonic hind limb extensor convulsions, is assessed in the MEST.\nNaïve mice were acclimatised to the procedure room in their home cages for up to 7 days, with food and water available ad libitum.\nAll animals were weighed at the beginning of the study and randomly assigned to treatment groups based on a mean distribution of body weight across groups.\nThe first animal within a treatment group was given a shock at the expected or estimated CC50 current. […]\nTest compound effects were also calculated as percentage change in CC50 from the vehicle control group.\nSignificant difference between drug-treated animals and controls were assessed according to Litchfield and Wilcoxon (1949)."}
{"smiles": "CN1C(=O)CN=C(c2ccccc2)c2cc(Cl)ccc21", "note": "[Diazepam, diazepam, reference compound]", "values": [{"measurement": "CC50 +/- SEM (current producing tonic hind limb extension in 50% of animals)", "setting": "N=6", "result": "97.8 ± 3.7", "unit": "mA"}, {"measurement": "CC50 +/- SEM (current producing tonic hind limb extension in 50% of animals)", "setting": "N=6, listed as diazepam", "result": 97.8, "unit": "mA"}]}
